The other results are listed elsewhere or left out. The main result of the screen is listed elsewhere. These columns were measured beside it and carry no call. Compounds called inactive in the main read-out are mostly missing here. The note in brackets gives the kind of curve behind each potency; many fits are weak.

The assay in a line: Cell signaling CRE-BLA (Fsk stim). Particulars: CHO CRE-bla reporter (cAMP response element driving beta-lactamase), forskolin EC10, beta-lactamase ratio; measured here: 460 nm blue channel. A digest of the protocol: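 Beta-lactamase reporter under a cAMP responsive element in CHO cells; compounds tested in titration series against EC10 NKH 477, 3 h at 37 °C. Read-out: CCF4 FRET ratio 460nm/530nm (excitation 405nm) giving %Activity, fitted to AC50.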
One may read the AC50 as the concentration giving half of the maximal activity seen. On to `O=C(CCNS(=O)(=O)c1ccc2c(c1)CCC(=O)N2)NCc1cccnc1`, for which the AC50 is 3.98 µM [falling, single point].
For `Cc1cc(N=Cc2cc(Br)ccc2O)no1` the value was 0.794 µM [rising, single point]; for `O=C(c1ccco1)N1C(=O)c2cccc3cccc1c23`, 10 µM [rising, partial curve, poor fit]; for `Nc1c(Sc2ccccc2)c(=O)[nH]c(=O)n1Cc1ccccc1`, 5.01 µM [falling, single point].
With `O=C(CN1C(=O)C2CC=CCC2C1=O)Nc1nc2ccccc2[nH]1` (configuration not stated), the AC50 is 31.6 µM [falling, single point].
As to `CCN(CC)CCCNC(=O)c1cn(CCOC)c(=O)c2c1c1ccccc1n2C`, the AC50 was 3.16 µM [rising, partial curve].
The result for `COc1cc2[nH]c3c(N4CCN(c5ccc(Cl)cc5)CC4)ncnc3c2cc1OC` reads 10 µM [rising, single point]; that for `O=S(=O)(Cc1ccccc1)NCc1ccccn1`, 0.00398 µM [falling, full curve, poor fit].
The result for `COCCn1c(=O)c(-c2cccc(C#N)c2)nc2cnc(N3CCN(C)CC3)nc21` reads 12.6 µM [rising, partial curve].
For `COc1ccc2[nH]c(=O)c(CN(CC3CCCO3)C(=O)Nc3ccccc3OC)cc2c1` (configuration not stated) the value was 12.6 µM [rising, single point]; for `C=CCn1cnc2c(c1=O)c1nc3ccccc3nc1n2/N=C/c1cccc(OC)c1OC`, 6.31 µM [rising, partial curve]; for `COc1ccc(Cc2nnc(NC(=O)c3ccco3)s2)cc1OC`, 12.6 µM [rising, partial curve].
Regarding `CCC(=O)Nc1nc(C)c(C(=O)N2CCCCC2)s1`, the concentration at half-maximal activity (AC50) is 31.6 µM [falling, partial curve].
The result for `Cc1ccc2[nH]c(=O)c(CN(Cc3cccs3)Cc3nnnn3Cc3ccccc3)cc2c1` reads 7.94 µM [falling, partial curve, poor fit].
Turning to `CCCCN(CCCC)C(=O)CCS(=O)(=O)c1ccc2c(c1)n(C)c(=O)c(=O)n2C`, the AC50 was 3.98 µM [falling, partial curve].
The result for `CCOc1cc(C(=O)NCc2nnc(SCC(=O)OC)n2C)cc(OCC)c1OCC` reads 25.1 µM [rising, single point].
For `COc1ccc(OC)c(N)c1` the value was 0.1 µM [falling, full curve, poor fit].
For `COc1ccccc1-c1ccc2ncnc(NC3CC3)c2c1`, the AC50 was 5.01 µM [rising, full curve].
For the compound `O=C(O)CCCNc1cc(N2CCC3(CC2)OCCO3)c2noc3c2c1C(=O)c1ccccc1-3`, the AC50 is 10 µM [rising, partial curve].
On to `CCOc1ccccc1NC(=O)N1CCCC(c2nc3c(nnn3Cc3ccc(C)cc3)c(=O)[nH]2)C1` (configuration not stated), for which the half-maximal activity concentration (AC50) is 10 µM [rising, partial curve].
For `N#Cc1nc(COc2ccc(Cl)cc2Cl)oc1N1CCOCC1` the value was 10 µM [rising, partial curve]; for `CCOC(=O)Oc1c(OC)cc(C(=O)O[C@H]2C[C@H]3CN4CCc5c([nH]c6cc(OC)ccc56)[C@@H]4C[C@H]3[C@@H](C(=O)OC)[C@@H]2OC)cc1OC`, 10 µM [falling, single point].
For `Cc1c(C(=O)c2no[n+]([O-])c2C(=O)c2cnn(C)c2C)cnn1C` the value was 20 µM [falling, partial curve].
For `COc1ccc2[nH]cc(CCNc3ccnc(-c4ccc(C(=O)N(C)C)cc4)n3)c2c1` the value was 3.98 µM [rising, full curve]; for `CCSc1ncc(Cl)c(C(=O)Nc2ccc(S(=O)(=O)Nc3onc(C)c3C)cc2)n1`, 12.6 µM [rising, single point].
As for `COc1ccc(NC(=O)C2CCCN2C(=O)NC2CCCCC2)cc1OC` (configuration not stated), the AC50 was 0.02 µM [falling, full curve].
Turning to `Cc1nc2cnc(N3CCNCC3)nc2n(Cc2ccc(F)cc2)c1=O`, the half-maximal activity concentration (AC50) was 25.1 µM [rising, single point].
The result for `CCOC(=O)c1[nH]c2ccc(F)cc2c1NC(=O)c1cc(OC)c(OC)c(OC)c1` reads 1.58 µM [rising, full curve]; that for `O=c1c(-c2ccc(F)c(F)c2)nc2cncnc2n1-c1ccccc1`, 12.6 µM [rising, partial curve]; that for `CCCCCCNC(=O)Cc1nc2nc(C)cc(C)n2n1`, 0.398 µM [rising, single point].
The result for `O=C(c1ccc(F)cc1)c1ccc(N2CCCC2)cc1` reads 12.6 µM [rising, partial curve].
As to `CCN(Cc1cc2cc(OC)ccc2[nH]c1=O)C(=O)Cc1ccc(OC)cc1`, the half-maximal activity concentration (AC50) is 12.6 µM [rising, partial curve].
The result for `c1ccc(-n2ncc3c2ncn2nc(-c4ccco4)nc32)cc1` reads 6.31 µM [rising, partial curve]; that for `CCCn1nc(C(=O)N2CC(=O)Nc3ccccc32)c2ccccc2c1=O`, 12.6 µM [rising, partial curve].
`COc1cccc(Cn2c(=O)c(-c3cc(F)cc(F)c3)nc3cnc(N4CCN(C)CC4)nc32)c1`: the AC50 was 3.16 µM [rising, full curve].
On to `[O-]/[N+](=C\c1ccccc1)[C@@H]1CCCC[C@@H]1/[N+]([O-])=C/c1ccccc1`, for which the half-maximal activity concentration (AC50) is 25.1 µM [rising, single point].
Consider `Cc1ccc(C)c(-n2nnnc2Sc2nnnn2-c2ccccc2)c1`, for which the half-maximal activity concentration (AC50) was 10 µM [falling, partial curve].
For `COc1ccc2[nH]cc(CCNc3nc(-c4ccc(C(=O)N(C)C)cc4)nc4ccccc34)c2c1`, the AC50 was 0.794 µM [rising, full curve].
Consider `CC1(C)N([O-])C(c2ccccc2)=C[N+](=O)C1(C)C`, for which the AC50 was 5.01 µM [falling, partial curve].
`COc1ccc2c(c1)c1c(n2C(C)=O)C(OC(C)=O)=NCC1`: the concentration at half-maximal activity (AC50) was 15.8 µM [rising, partial curve].
The result for `Fc1ccc(Nc2nc(N3CCOCC3)c3ccccc3n2)cc1` reads 3.98 µM [falling, single point]; that for `COc1cccc(Nc2ncc3ncc(=O)n(CCc4ccccc4)c3n2)c1`, 10 µM [rising, partial curve].
For `FC(F)(F)c1ccccc1-c1nccc(NCCN2CCOCC2)n1` the value was 2.51 µM [rising, full curve].
Consider `Nc1nonc1-c1nc2ccccc2n1CC(=O)NC1CCCC1`, for which the AC50 is 0.126 µM [falling, partial curve, poor fit].
As for `O=C1CCCN1CCCn1cnc2c([nH]c3ccc(F)cc32)c1=O`, the AC50 is 10 µM [rising, partial curve].
On to `O=C(CSc1nnc(Cc2cc(=O)[nH]c(=O)[nH]2)n1-c1ccccc1)N1CCCc2ccccc21`, for which the AC50 was 1.58 µM [falling, partial curve].
On to `O=C(CCSc1nnc2scc(-c3ccccc3)n12)NCc1ccc2c(c1)OCO2`, for which the half-maximal activity concentration (AC50) was 10 µM [rising, partial curve].
For `CCOC(=O)C1CCN(CC(=O)Nc2c(C(=O)OC)[nH]c3cccc(Cl)c23)CC1` the value was 12.6 µM [falling, partial curve, poor fit]; for `O=C(O)COc1nsnc1N1CCOCC1`, 25.1 µM [falling, single point].
In the case of `COc1ccc(CCN2C(=O)c3[nH]nc(-c4ccccc4O)c3C2c2ccccc2)cc1OC` (configuration not stated), the AC50 is 10 µM [rising, single point].
Consider `CCOC(=O)CC1(C)NC(=O)c2c(C)sc(C(=O)OCC)c2N1` (configuration not stated), for which the half-maximal activity concentration (AC50) is 15.8 µM [rising, partial curve].
Consider `COCCn1c(-c2ccc(OC)c(OC)c2)nc2ccccc21`, for which the concentration at half-maximal activity (AC50) is 15.8 µM [rising, single point].
On to `O=C(Cn1cnc2c(cnn2-c2ccc(F)cc2)c1=O)NCC1CCCO1` (configuration not stated), for which the half-maximal activity concentration (AC50) is 0.0316 µM [rising, full curve].
The result for `Cc1ccc(-n2nnnc2SCC(=O)Nc2c(C)n(C)n(-c3ccccc3)c2=O)cc1` reads 25.1 µM [rising, single point].
As for `COc1ccc(N2C(=O)CC(Sc3ncn[nH]3)C2=O)c(OC)c1` (configuration not stated), the half-maximal activity concentration (AC50) is 1 µM [falling, full curve].
`Cc1cccc(CSc2ncnc3nc[nH]c23)c1`: the concentration at half-maximal activity (AC50) is 5.01 µM [falling, full curve, poor fit].
The result for `CSc1ccc(/C=N/n2c(C)cc(C)cc2=O)cc1` reads 0.316 µM [rising, full curve]; that for `c1ccc(CN2C3=NCCCN3c3ccccc32)cc1`, 25.1 µM [falling, single point].
As to `CCCCn1cc(C(C)(C)C)c(C#N)c1NC(C)=O`, the AC50 is 3.98 µM [rising, single point].
For `Cc1ccc(-n2c(SCC(=O)NCC3CCCO3)nc3n[nH]c(C)c3c2=N)cc1Cl` (configuration not stated) the value was 12.6 µM [rising, single point].
`CS(=O)(=O)c1nc(-c2ccccc2)cc(C(F)(F)F)n1`: the AC50 was 1.58 µM [falling, partial curve].
Regarding `Oc1ccccc1-c1nnc(-c2ccc(C(F)(F)F)cc2)o1`, the AC50 is 0.126 µM [falling, full curve].
As to `O=C(NCCN1CCNCC1)c1ccccn1`, the concentration at half-maximal activity (AC50) is 0.00631 µM [falling, full curve, poor fit].
The result for `Cc1ccc(S(=O)(=O)N2CCOCC2)cc1C(=O)Nc1nc(-c2cccnc2)cs1` reads 25.1 µM [rising, single point]; that for `CCSc1nnc(NC(=O)C2Cc3ccccc3CN2C(=O)c2ccco2)s1` (configuration not stated), 2 µM [falling, full curve]; that for `Cc1cc(NC(=O)c2cc(-c3cccs3)nc3ccccc23)no1`, 10 µM [rising, partial curve].
Consider `CC(=O)N1c2ccc(S(=O)(=O)CCC(=O)O)cc2CC1C` (configuration not stated), for which the AC50 is 0.2 µM [falling, full curve].

Values taken from PubChem BioAssay AID662 (National Center for Advancing Translational Sciences (NCATS), 2007).
